The source of these data is PMC12510028, “A biophysical and molecular characterization of the interaction between the Alzheimer risk factor BIN1 and the neuronal scaffold protein p140Cap” (The Journal of Biological Chemistry, 2025).

These are yes or no findings as the source states them, for the method shown. For part of these data: Binding seen in cells or lysates may run through a third protein. Some entries that bind do so weakly or less than the wild type. For part of these data: Where a sequence is shown, tags or fusion partners need not be part of it.

Assay [1] concerns the target T1, p140Cap from mouse brain (mouse (endogenous in mouse brain)) (UniProt Q9QWI6).
T1 sequence: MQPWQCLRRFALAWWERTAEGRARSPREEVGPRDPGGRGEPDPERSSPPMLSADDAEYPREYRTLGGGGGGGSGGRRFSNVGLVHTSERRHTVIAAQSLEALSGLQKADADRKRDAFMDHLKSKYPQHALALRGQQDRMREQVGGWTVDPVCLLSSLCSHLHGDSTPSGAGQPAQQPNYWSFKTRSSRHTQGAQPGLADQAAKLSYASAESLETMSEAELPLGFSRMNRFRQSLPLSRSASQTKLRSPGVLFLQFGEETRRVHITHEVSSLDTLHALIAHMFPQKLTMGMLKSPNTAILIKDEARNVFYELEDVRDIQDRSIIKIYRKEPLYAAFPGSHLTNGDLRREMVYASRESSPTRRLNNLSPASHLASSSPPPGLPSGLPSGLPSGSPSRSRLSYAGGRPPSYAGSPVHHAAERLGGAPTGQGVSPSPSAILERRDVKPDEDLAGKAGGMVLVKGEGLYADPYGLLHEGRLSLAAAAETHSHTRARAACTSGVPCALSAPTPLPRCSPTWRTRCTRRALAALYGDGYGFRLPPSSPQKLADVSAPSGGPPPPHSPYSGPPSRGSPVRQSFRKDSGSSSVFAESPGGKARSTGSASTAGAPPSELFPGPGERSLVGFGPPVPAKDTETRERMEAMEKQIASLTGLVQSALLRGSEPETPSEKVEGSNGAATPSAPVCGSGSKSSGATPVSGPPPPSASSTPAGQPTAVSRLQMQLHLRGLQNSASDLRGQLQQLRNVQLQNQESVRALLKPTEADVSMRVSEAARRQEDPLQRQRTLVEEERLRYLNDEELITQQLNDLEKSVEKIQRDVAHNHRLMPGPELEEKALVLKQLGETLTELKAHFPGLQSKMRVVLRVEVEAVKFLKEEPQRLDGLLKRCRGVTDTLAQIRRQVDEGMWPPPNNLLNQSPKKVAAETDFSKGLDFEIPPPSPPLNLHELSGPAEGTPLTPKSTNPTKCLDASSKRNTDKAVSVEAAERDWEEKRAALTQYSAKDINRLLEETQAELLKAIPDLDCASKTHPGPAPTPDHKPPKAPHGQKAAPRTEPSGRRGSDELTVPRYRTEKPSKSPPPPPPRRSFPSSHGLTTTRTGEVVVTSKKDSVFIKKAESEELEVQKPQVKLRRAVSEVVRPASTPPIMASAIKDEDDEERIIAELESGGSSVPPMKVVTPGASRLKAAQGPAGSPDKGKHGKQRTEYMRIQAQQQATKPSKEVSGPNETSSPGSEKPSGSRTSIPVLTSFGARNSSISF
In words: proximity ligation; Duolink in situ PLA on fixed paraffin sections of mouse brain (nTg, BIN1-cKO, BIN1-OE) with BIN1 rabbit mAb and p140Cap mAb.

Assay [2] deals with T2, Avi-tagged BIN1 SH3 domain (human) (UniProt O00499).
T2 sequence (chain, biotin within the 15 amino acid AviTag peptide (enzymatic, in E. coli)): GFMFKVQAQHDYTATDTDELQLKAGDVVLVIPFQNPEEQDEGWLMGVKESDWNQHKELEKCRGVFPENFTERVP
Briefly: SPR; Biacore S200, Biotin CAPture chip; biotinylated Avi-BIN1-SH3 captured on flow cell 2, Avi-tagged CTX-M-14 β-lactamase on reference flow cell 1; peptides injected as analytes at 30 μl/min; 25 °C, 1X PBS-P+; steady-state analysis, 1:1 model; both purified.

Assay [3] concerns the target T3, GST-tagged BIN1-SH3 domain fusion protein (WT) (human) (UniProt O00499).
T3 sequence: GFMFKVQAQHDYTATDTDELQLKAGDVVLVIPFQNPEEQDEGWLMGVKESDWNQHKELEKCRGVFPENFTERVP
Briefly: pull-down; 25 μg GST or GST-BSH3 (WT or mutant) on glutathione-Sepharose with 0.5 mg of 1% Triton X-100 soluble mouse brain homogenate, 2 h at room temperature; washes with 50 mM KCl, 150 mM NaCl, 1.5% IGEPAL; immunoblot for p140Cap and total tau; only the target purified. (In general: A western blot detects proteins with antibodies after separation by electrophoresis.)

Consider “BIN1 from mouse brain (from UniProt O08539 1-588)”, for which the binding result in assay [1] is on record as “binds”.

Take ERSLVGFGPPVPAK (N-terminal acetylation; C-terminal amination (so in the source)) [p140Cap 14-mer peptide 583-596]: in assay [2], the binding entry is listed as “no binding”. Same read-out and setting: as for GYGFRLPPSSPQKL (N-terminal acetylation; C-terminal amination (so in the source)) [p140Cap 14-mer peptide 498-512], the entry is “no binding”; as for KSPPPPP [p140Cap native class I 7-mer peptide], “no binding (tested: 0.6–75 μM tested)”.

B1: p140Cap from mouse brain (protein, UniProt Q9QWI6 1-1250)
chain: MQPWQCLRRFALAWWERTAEGRARSPREEVGPRDPGGRGEPDPERSSPPMLSADDAEYPREYRTLGGGGGGGSGGRRFSNVGLVHTSERRHTVIAAQSLEALSGLQKADADRKRDAFMDHLKSKYPQHALALRGQQDRMREQVGGWTVDPVCLLSSLCSHLHGDSTPSGAGQPAQQPNYWSFKTRSSRHTQGAQPGLADQAAKLSYASAESLETMSEAELPLGFSRMNRFRQSLPLSRSASQTKLRSPGVLFLQFGEETRRVHITHEVSSLDTLHALIAHMFPQKLTMGMLKSPNTAILIKDEARNVFYELEDVRDIQDRSIIKIYRKEPLYAAFPGSHLTNGDLRREMVYASRESSPTRRLNNLSPASHLASSSPPPGLPSGLPSGLPSGSPSRSRLSYAGGRPPSYAGSPVHHAAERLGGAPTGQGVSPSPSAILERRDVKPDEDLAGKAGGMVLVKGEGLYADPYGLLHEGRLSLAAAAETHSHTRARAACTSGVPCALSAPTPLPRCSPTWRTRCTRRALAALYGDGYGFRLPPSSPQKLADVSAPSGGPPPPHSPYSGPPSRGSPVRQSFRKDSGSSSVFAESPGGKARSTGSASTAGAPPSELFPGPGERSLVGFGPPVPAKDTETRERMEAMEKQIASLTGLVQSALLRGSEPETPSEKVEGSNGAATPSAPVCGSGSKSSGATPVSGPPPPSASSTPAGQPTAVSRLQMQLHLRGLQNSASDLRGQLQQLRNVQLQNQESVRALLKPTEADVSMRVSEAARRQEDPLQRQRTLVEEERLRYLNDEELITQQLNDLEKSVEKIQRDVAHNHRLMPGPELEEKALVLKQLGETLTELKAHFPGLQSKMRVVLRVEVEAVKFLKEEPQRLDGLLKRCRGVTDTLAQIRRQVDEGMWPPPNNLLNQSPKKVAAETDFSKGLDFEIPPPSPPLNLHELSGPAEGTPLTPKSTNPTKCLDASSKRNTDKAVSVEAAERDWEEKRAALTQYSAKDINRLLEETQAELLKAIPDLDCASKTHPGPAPTPDHKPPKAPHGQKAAPRTEPSGRRGSDELTVPRYRTEKPSKSPPPPPPRRSFPSSHGLTTTRTGEVVVTSKKDSVFIKKAESEELEVQKPQVKLRRAVSEVVRPASTPPIMASAIKDEDDEERIIAELESGGSSVPPMKVVTPGASRLKAAQGPAGSPDKGKHGKQRTEYMRIQAQQQATKPSKEVSGPNETSSPGSEKPSGSRTSIPVLTSFGARNSSISF
In the case of B1, the binding entry in assay [3] was “binds”. On to PPPPPPR [p140Cap native class IIb 7-mer peptide], for which the binding result in assay [2] was “no binding (tested: 0.6–75 μM tested)”.
